Test results from the supplement of paper PMC10849652.
The other results are listed elsewhere or left out.

Chains of the proteins cited; added tags and fusions are not shown. Lines headed by an entry give the natural chain unless they say otherwise; changes in a name come on top.
UniProt Q9UHV9, whole entry, looked up: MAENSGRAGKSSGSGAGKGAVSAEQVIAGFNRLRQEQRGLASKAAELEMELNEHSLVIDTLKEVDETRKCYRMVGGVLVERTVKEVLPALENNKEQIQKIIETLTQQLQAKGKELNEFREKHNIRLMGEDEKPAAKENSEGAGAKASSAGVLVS
UniProt Q8N0Y7: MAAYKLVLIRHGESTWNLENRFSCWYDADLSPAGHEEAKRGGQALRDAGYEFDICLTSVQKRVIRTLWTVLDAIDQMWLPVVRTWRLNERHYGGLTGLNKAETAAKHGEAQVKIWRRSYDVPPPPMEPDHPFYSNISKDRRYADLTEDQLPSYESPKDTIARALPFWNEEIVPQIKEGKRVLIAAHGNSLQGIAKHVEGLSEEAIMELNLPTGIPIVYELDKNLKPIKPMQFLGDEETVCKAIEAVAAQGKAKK
UniProt O15212, whole entry, looked up: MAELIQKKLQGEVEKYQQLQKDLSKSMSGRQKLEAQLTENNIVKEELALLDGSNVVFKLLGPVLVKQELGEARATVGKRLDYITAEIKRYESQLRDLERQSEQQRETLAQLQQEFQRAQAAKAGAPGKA
UniProt O75167: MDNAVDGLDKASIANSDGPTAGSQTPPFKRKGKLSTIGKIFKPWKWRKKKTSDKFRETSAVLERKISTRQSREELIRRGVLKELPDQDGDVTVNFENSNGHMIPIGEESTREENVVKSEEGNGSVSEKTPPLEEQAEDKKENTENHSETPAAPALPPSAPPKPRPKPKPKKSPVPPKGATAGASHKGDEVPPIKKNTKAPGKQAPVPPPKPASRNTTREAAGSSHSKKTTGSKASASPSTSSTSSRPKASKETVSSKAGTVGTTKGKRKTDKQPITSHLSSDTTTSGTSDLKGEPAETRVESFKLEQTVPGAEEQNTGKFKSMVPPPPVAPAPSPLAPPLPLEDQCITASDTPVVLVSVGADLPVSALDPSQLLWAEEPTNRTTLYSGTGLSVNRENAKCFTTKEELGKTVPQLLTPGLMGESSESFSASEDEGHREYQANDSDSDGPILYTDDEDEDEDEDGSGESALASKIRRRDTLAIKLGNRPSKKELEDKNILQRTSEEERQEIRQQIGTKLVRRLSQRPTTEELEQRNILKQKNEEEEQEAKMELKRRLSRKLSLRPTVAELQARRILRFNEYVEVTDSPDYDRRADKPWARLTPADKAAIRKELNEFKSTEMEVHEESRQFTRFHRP
UniProt Q9UBF8: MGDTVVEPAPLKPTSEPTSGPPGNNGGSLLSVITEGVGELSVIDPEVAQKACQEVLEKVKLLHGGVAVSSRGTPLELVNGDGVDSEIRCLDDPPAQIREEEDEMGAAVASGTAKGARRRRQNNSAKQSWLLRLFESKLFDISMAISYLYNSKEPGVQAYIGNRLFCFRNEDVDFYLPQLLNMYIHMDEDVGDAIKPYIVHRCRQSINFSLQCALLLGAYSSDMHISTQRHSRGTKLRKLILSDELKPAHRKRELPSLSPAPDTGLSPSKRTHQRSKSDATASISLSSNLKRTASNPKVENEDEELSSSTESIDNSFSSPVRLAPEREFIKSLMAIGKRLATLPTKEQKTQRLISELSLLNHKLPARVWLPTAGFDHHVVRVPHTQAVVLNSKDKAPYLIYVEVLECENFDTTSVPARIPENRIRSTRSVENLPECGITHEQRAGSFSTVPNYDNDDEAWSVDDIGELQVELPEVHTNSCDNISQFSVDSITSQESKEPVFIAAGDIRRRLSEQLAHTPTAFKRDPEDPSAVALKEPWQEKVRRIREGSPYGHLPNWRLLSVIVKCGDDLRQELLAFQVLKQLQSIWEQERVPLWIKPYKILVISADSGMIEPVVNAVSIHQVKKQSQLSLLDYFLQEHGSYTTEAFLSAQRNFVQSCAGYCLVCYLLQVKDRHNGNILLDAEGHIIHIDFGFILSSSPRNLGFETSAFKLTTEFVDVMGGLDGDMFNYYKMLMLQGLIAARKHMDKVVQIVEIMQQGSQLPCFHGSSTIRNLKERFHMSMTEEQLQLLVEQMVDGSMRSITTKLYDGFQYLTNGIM
UniProt P27986, whole entry, looked up: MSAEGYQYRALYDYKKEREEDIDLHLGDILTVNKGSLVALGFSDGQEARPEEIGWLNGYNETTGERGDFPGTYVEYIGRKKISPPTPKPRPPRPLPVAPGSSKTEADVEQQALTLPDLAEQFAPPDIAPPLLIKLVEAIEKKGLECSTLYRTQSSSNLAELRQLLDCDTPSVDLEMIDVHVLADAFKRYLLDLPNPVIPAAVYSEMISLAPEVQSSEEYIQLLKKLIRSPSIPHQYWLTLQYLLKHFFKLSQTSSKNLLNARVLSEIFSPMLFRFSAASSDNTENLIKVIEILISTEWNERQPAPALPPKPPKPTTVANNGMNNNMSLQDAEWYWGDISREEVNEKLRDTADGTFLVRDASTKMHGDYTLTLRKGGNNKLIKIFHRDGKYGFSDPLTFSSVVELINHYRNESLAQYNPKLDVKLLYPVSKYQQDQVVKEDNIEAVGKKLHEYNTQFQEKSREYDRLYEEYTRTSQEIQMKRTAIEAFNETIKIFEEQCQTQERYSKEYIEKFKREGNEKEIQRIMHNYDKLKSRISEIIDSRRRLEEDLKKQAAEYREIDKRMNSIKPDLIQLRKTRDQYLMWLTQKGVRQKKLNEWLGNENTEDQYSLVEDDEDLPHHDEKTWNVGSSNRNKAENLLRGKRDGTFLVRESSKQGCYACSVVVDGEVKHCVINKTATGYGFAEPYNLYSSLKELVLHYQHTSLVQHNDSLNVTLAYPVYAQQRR
UniProt Q96BK5: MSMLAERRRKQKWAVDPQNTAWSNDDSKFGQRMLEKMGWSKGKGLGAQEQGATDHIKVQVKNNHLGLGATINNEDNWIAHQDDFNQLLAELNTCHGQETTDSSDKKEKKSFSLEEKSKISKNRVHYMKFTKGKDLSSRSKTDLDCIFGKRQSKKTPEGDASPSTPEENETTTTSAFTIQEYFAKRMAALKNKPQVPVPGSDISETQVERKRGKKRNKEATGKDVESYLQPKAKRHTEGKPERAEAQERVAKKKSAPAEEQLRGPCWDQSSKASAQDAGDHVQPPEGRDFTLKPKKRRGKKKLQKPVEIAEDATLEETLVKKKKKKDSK
UniProt P42338: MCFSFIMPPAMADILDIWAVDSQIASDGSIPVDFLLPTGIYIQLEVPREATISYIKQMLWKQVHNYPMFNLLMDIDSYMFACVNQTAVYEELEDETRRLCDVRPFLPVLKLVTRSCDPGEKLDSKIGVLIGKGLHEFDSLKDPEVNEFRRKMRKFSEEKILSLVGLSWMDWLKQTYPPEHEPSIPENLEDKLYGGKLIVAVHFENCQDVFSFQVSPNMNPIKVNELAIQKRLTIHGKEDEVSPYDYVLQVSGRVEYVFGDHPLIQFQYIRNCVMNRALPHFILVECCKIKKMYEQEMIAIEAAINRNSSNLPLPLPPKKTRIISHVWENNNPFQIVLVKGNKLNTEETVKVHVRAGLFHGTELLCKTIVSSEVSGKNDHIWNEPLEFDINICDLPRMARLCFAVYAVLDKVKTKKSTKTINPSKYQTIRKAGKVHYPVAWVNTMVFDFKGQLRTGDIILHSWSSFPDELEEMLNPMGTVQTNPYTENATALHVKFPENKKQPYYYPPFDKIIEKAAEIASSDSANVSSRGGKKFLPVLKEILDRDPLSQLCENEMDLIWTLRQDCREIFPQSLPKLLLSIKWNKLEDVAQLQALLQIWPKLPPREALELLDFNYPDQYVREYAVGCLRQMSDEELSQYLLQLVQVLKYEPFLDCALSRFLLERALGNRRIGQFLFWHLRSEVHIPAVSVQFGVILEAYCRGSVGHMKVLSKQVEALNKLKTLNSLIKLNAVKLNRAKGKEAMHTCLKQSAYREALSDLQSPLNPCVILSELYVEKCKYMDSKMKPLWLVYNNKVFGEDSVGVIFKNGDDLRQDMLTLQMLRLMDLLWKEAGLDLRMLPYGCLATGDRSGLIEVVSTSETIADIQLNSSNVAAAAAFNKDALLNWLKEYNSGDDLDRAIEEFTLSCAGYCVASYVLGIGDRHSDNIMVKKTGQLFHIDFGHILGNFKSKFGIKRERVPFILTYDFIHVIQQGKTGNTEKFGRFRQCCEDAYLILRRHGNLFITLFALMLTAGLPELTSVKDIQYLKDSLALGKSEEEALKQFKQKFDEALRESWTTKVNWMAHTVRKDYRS
UniProt P18669: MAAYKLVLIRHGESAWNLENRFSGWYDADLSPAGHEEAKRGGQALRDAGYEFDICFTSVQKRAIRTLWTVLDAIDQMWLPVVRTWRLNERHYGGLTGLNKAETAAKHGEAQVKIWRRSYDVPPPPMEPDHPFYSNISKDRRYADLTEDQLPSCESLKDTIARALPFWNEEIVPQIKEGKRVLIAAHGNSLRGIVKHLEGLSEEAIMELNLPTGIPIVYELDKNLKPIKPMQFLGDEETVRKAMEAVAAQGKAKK
UniProt Q9Y263: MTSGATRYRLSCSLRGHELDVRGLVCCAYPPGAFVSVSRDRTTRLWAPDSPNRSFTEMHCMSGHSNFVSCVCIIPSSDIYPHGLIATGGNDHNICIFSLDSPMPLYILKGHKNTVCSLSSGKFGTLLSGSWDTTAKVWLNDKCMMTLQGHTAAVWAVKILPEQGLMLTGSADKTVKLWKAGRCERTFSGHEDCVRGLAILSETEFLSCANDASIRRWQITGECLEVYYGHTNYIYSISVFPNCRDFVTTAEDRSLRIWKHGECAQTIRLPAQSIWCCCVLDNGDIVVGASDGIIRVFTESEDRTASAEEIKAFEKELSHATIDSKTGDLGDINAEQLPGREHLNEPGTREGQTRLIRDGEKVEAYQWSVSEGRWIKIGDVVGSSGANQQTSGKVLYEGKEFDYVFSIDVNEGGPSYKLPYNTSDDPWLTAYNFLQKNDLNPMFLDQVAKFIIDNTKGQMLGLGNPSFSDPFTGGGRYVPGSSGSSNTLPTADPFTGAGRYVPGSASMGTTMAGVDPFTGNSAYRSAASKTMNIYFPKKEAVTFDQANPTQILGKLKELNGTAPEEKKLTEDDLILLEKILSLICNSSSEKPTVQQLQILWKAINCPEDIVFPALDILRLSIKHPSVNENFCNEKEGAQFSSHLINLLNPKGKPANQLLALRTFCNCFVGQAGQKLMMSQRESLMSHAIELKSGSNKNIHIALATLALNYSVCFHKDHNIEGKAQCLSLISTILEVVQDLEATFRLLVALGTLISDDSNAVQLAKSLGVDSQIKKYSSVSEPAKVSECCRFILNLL
UniProt O95336: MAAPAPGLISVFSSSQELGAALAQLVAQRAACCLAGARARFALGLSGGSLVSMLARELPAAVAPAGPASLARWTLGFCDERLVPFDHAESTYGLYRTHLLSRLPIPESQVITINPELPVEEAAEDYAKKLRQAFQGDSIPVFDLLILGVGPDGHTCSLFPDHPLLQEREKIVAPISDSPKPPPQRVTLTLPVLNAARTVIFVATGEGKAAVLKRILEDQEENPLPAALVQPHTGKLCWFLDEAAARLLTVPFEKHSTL
UniProt P28328: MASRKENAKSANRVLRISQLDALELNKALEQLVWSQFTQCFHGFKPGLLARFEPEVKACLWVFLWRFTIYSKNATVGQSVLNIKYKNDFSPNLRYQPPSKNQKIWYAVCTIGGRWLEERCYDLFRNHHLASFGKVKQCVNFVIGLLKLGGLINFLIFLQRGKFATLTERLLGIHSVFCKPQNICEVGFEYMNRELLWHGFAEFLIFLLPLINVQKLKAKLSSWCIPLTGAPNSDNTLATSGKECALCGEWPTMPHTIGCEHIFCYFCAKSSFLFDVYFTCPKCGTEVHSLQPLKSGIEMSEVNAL
UniProt Q9NWS0, whole entry, looked up: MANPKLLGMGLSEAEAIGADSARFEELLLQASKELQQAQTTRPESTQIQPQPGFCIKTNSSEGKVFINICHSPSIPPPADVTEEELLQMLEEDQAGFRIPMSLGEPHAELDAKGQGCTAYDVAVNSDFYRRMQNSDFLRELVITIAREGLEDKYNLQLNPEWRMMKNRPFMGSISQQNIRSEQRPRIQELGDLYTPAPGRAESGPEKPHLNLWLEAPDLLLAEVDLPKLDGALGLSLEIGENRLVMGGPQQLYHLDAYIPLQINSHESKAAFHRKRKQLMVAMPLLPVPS
UniProt Q99755: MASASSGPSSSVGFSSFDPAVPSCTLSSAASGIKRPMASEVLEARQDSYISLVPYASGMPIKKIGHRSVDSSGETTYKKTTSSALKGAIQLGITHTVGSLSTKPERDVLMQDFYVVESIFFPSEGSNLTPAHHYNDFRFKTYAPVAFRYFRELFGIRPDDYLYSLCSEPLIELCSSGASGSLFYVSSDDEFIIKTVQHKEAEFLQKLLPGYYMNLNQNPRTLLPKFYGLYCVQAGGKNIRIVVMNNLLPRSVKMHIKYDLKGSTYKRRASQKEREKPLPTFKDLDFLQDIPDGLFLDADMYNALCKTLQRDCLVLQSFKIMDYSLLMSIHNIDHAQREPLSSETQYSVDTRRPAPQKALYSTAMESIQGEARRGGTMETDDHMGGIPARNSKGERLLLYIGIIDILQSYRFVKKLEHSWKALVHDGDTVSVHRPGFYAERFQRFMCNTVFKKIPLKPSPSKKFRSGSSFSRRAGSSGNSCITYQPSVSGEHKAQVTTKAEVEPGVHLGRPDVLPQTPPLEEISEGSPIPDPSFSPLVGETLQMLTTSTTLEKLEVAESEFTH

Legend:
Test in all cases: log2 fold change, soluble protein after heating vs DMSO (PISA); higher = thermal stabilisation; K562 cells, 10 uM, 30 min; active = over 0.2 and 3.5 SD of the protein, either way, in both replicates (recomputed)
[1] = compound: COC1=CC=C(C=C1)CN2C=CC3=C2C=C(C=C3)C(=O)NO
How it was run: (§1)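 K562 cells at 2×10^6 cells/mL were given 10 μM compound for 30 min. Aliquots then went through 3 min of heating across 48°C-58°C, were pooled, and were extracted in PBS with 0.5% NP-40 at 4°C, and the supernatant after 21,000xg for 90 min was quantified by TMTpro 16plex LC-MS/MS with channel sums equalised. Thermal stability relative to control samples, from duplicates, is given as log2 fold change.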

filanesib = compound: CON(C)C(=O)N1N=C(c2cc(F)ccc2F)S[C@@]1(CCCN)c1ccccc1 [filanesib]
How it was run: as §1

zotarolimus = compound: CO[C@H]1C[C@@H]2CC[C@@H](C)[C@@](O)(O2)C(=O)C(=O)N2CCCC[C@H]2C(=O)O[C@H]([C@H](C)C[C@@H]2CC[C@H](n3cnnn3)[C@H](OC)C2)CC(=O)[C@H](C)/C=C(\C)[C@@H](O)[C@@H](OC)C(=O)[C@H](C)C[C@H](C)/C=C/C=C/C=C/1C [zotarolimus]
How it was run: as §1

idasanutlin = compound: COc1cc(C(=O)O)ccc1NC(=O)[C@@H]1N[C@@H](CC(C)(C)C)[C@](C#N)(c2ccc(Cl)cc2F)[C@H]1c1cccc(Cl)c1F [idasanutlin]
How it was run: as §1

alisertib = compound: COc1cc(Nc2ncc3c(n2)-c2ccc(Cl)cc2C(c2c(F)cccc2OC)=NC3)ccc1C(=O)O [alisertib]
How it was run: as §1

[2] = compound: COc1cc2nc(-c3cc(F)ccc3O)nc(N[C@@H]3CNC[C@H]3C(C)(C)O)c2cc1OC
How it was run: as §1

gefitinib = compound: COc1cc2ncnc(Nc3ccc(F)c(Cl)c3)c2cc1OCCCN1CCOCC1 [gefitinib]
How it was run: as §1

[3] = compound: COc1cccc2cc(-c3nc([C@H]4CC[C@H](C(=O)O)CC4)n4ncnc(N)c34)[nH]c12
How it was run: as §1

lapatinib = compound: CS(=O)(=O)CCNCc1ccc(-c2ccc3ncnc(Nc4ccc(OCc5cccc(F)c5)c(Cl)c4)c3c2)o1 [lapatinib]
How it was run: as §1

pictilisib = compound: CS(=O)(=O)N1CCN(Cc2cc3nc(-c4cccc5[nH]ncc45)nc(N4CCOCC4)c3s2)CC1 [pictilisib]
How it was run: as §1

[4] = compound: CS(=O)(=O)c1ccc(-c2cnc(N)c(C(=O)Nc3ccccc3)n2)cc1
How it was run: as §1

crizotinib = compound: C[C@@H](Oc1cc(-c2cnn(C3CCNCC3)c2)cnc1N)c1c(Cl)ccc(F)c1Cl [crizotinib]
How it was run: as §1

[5] = compound: C[C@@H]1COCCN1C2=NC(=NC(=C2)C3(CC3)S(=O)(=O)C)C4=C5C=CNC5=CC=C4
How it was run: as §1

[6] = compound: C[C@H](C1=CC=C(C=C1)C(=O)NC2=C3C=CNC3=NC=C2)N
How it was run: as §1

duvelisib = compound: C[C@H](Nc1ncnc2nc[nH]c12)c1cc2cccc(Cl)c2c(=O)n1-c1ccccc1 [duvelisib]
How it was run: as §1

gandotinib = compound: Cc1cc(Nc2cc(CN3CCOCC3)c3nc(C)c(Cc4ccc(Cl)cc4F)n3n2)n[nH]1 [gandotinib]
How it was run: as §1

tozasertib = compound: Cc1cc(Nc2cc(N3CCN(C)CC3)nc(Sc3ccc(NC(=O)C4CC4)cc3)n2)n[nH]1 [tozasertib]
How it was run: as §1

[7] = compound: Cc1cc(SCc2sc(-c3ccc(C(F)(F)F)cc3)nc2C)ccc1OCC(=O)O
How it was run: as §1

doramapimod = compound: Cc1ccc(-n2nc(C(C)(C)C)cc2NC(=O)Nc2ccc(OCCN3CCOCC3)c3ccccc23)cc1 [doramapimod]
How it was run: as §1

ispinesib = compound: Cc1ccc(C(=O)N(CCCN)[C@@H](c2nc3cc(Cl)ccc3c(=O)n2Cc2ccccc2)C(C)C)cc1 [ispinesib]
How it was run: as §1

Measured: log2 fold change

PFDN2 (UniProt Q9UHV9)
inactive: [1] -0.051 | filanesib -0.023 | zotarolimus -0.002 | idasanutlin -0.012 | alisertib -0.019 | [2] -0.016 | gefitinib -0.003 | [3] 0.057 | lapatinib -0.017 | pictilisib 0.039 | [4] -0.011 | crizotinib 0.012 | [5] 0.061 | [6] -0.019 | duvelisib 0.057 | gandotinib -0.041 | tozasertib 0.006 | [7] -0.002 | doramapimod 0.014 | ispinesib 0.004

PGAM4 (UniProt Q8N0Y7)
inactive: [1] -0.039 | filanesib -0.018 | zotarolimus -0.016 | idasanutlin -0.025 | alisertib -0.042 | [2] -0.025 | gefitinib -0.022 | [3] 0.039 | lapatinib -0.021 | pictilisib -0.016 | [4] 0.018 | crizotinib -0.018 | [5] 0.04 | [6] -0.057 | duvelisib 0.033 | gandotinib 0.021 | tozasertib -0.006 | [7] -0.071 | doramapimod -0.01 | ispinesib 0

PFDN6 (UniProt O15212)
inactive: [1] -0.036 | filanesib -0.052 | zotarolimus -0.026 | idasanutlin 0.029 | alisertib -0.044 | [2] -0.018 | gefitinib -0.018 | [3] 0.014 | lapatinib 0.024 | pictilisib -0.012 | [4] -0.021 | crizotinib 0.077 | [5] 0.08 | [6] -0.021 | duvelisib 0.083 | gandotinib -0.025 | tozasertib 0.009 | [7] -0.02 | doramapimod -0.029 | ispinesib -0.027

PHACTR2 isoform 4 (UniProt O75167)
inactive: [1] 0 | filanesib 0.003 | zotarolimus -0.044 | idasanutlin 0.054 | alisertib -0.041 | [2] -0.081 | gefitinib 0.223 | [3] 0.085 | lapatinib -0.043 | pictilisib 0.053 | [4] -0.004 | crizotinib -0.017 | [5] 0.201 | [6] 0.047 | duvelisib -0.015 | gandotinib 0.079 | tozasertib -0.027 | [7] -0.087 | doramapimod 0.004 | ispinesib 0.065

PI4KB (UniProt Q9UBF8)
inactive: [1] -0.027 | filanesib -0.048 | zotarolimus -0.047 | idasanutlin -0.034 | alisertib -0.053 | [2] 0.015 | gefitinib -0.024 | [3] 0.045 | lapatinib 0.046 | pictilisib 0.024 | [4] -0.159 | crizotinib -0.197 | [5] 0.047 | [6] 0.036 | duvelisib -0.029 | gandotinib -0.065 | tozasertib -0.107 | [7] 0.038 | doramapimod 0.027 | ispinesib -0.147

PGRMC1 (UniProt O00264)
inactive: [1] -0.027 | filanesib 0.001 | zotarolimus -0.052 | idasanutlin 0.05 | alisertib -0.094 | [2] 0.005 | gefitinib 0.033 | [3] 0.057 | lapatinib 0.016 | pictilisib -0.029 | [4] -0.029 | crizotinib 0.1 | [5] -0.065 | [6] -0.017 | duvelisib -0.011 | gandotinib 0 | tozasertib -0.003 | [7] -0.041 | doramapimod -0.034 | ispinesib 0.143

PIK3R1 (UniProt P27986)
inactive: [1] 0.01 | filanesib -0.041 | zotarolimus -0.002 | idasanutlin -0.027 | alisertib -0.075 | [2] 0.054 | gefitinib 0.045 | [3] 0.014 | lapatinib -0.005 | pictilisib 0.048 | [4] 0.033 | crizotinib -0.044 | [5] 0.002 | [6] 0.022 | gandotinib -0.038 | [7] 0.051 | doramapimod 0.056 | ispinesib -0.079
active: duvelisib 0.232

PINX1 (UniProt Q96BK5)
inactive: [1] -0.276 | filanesib 0.414 | zotarolimus -0.108 | idasanutlin 0.237 | alisertib -0.135 | [2] 0.122 | gefitinib -0.032 | [3] -0.207 | lapatinib 0.255 | pictilisib -0.372 | [4] -0.091 | crizotinib 0.065 | [5] -0.702 | [6] 0.547 | duvelisib -0.182 | gandotinib 0.387 | tozasertib 0.047 | [7] -0.063 | doramapimod 0.176 | ispinesib -0.075

Three neighbouring records from above:
PI4KB (UniProt Q9UBF8)
inactive: [1] -0.027 | filanesib -0.048 | zotarolimus -0.047 | idasanutlin -0.034 | alisertib -0.053 | [2] 0.015 | gefitinib -0.024 | [3] 0.045 | lapatinib 0.046 | pictilisib 0.024 | [4] -0.159 | crizotinib -0.197 | [5] 0.047 | [6] 0.036 | duvelisib -0.029 | gandotinib -0.065 | tozasertib -0.107 | [7] 0.038 | doramapimod 0.027 | ispinesib -0.147

PGRMC1 (UniProt O00264)
inactive: [1] -0.027 | filanesib 0.001 | zotarolimus -0.052 | idasanutlin 0.05 | alisertib -0.094 | [2] 0.005 | gefitinib 0.033 | [3] 0.057 | lapatinib 0.016 | pictilisib -0.029 | [4] -0.029 | crizotinib 0.1 | [5] -0.065 | [6] -0.017 | duvelisib -0.011 | gandotinib 0 | tozasertib -0.003 | [7] -0.041 | doramapimod -0.034 | ispinesib 0.143

PIK3R1 (UniProt P27986)
inactive: [1] 0.01 | filanesib -0.041 | zotarolimus -0.002 | idasanutlin -0.027 | alisertib -0.075 | [2] 0.054 | gefitinib 0.045 | [3] 0.014 | lapatinib -0.005 | pictilisib 0.048 | [4] 0.033 | crizotinib -0.044 | [5] 0.002 | [6] 0.022 | gandotinib -0.038 | [7] 0.051 | doramapimod 0.056 | ispinesib -0.079
active: duvelisib 0.232

Following part.

PIK3CB (UniProt P42338)
active: pictilisib 0.258 | duvelisib 0.318
inactive: [1] 0.063 | filanesib 0.007 | zotarolimus 0.042 | idasanutlin -0.041 | alisertib 0.003 | [2] 0.02 | gefitinib 0.048 | [3] 0.01 | lapatinib 0.001 | [4] 0.043 | crizotinib -0.077 | [5] 0.064 | [6] 0.034 | gandotinib -0.041 | [7] 0.06 | doramapimod 0 | ispinesib -0.057

PGAM1 (UniProt P18669)
inactive: [1] -0.019 | filanesib -0.031 | zotarolimus -0.003 | idasanutlin 0.002 | alisertib -0.043 | [2] -0.021 | gefitinib 0.019 | [3] 0.033 | lapatinib -0.004 | pictilisib 0.074 | [4] -0.028 | crizotinib -0.039 | [5] -0.012 | [6] -0.065 | duvelisib 0.006 | gandotinib -0.022 | tozasertib 0.004 | [7] 0.011 | doramapimod -0.005 | ispinesib -0.02

PLAA (UniProt Q9Y263)
inactive: [1] 0.052 | filanesib 0 | zotarolimus 0.044 | idasanutlin -0.063 | alisertib 0.018 | [2] 0.031 | gefitinib 0.007 | [3] 0.001 | lapatinib -0.008 | pictilisib -0.001 | [4] 0.03 | crizotinib -0.074 | [5] 0.01 | [6] -0.03 | duvelisib 0.058 | gandotinib -0.113 | tozasertib -0.003 | [7] 0.101 | doramapimod -0.013 | ispinesib -0.015

PEX6 (UniProt Q13608)
inactive: [1] -0.064 | filanesib -0.123 | zotarolimus -0.014 | idasanutlin -0.048 | alisertib -0.029 | [2] -0.044 | gefitinib 0.048 | [3] 0.038 | lapatinib -0.015 | pictilisib -0.017 | [4] 0.102 | crizotinib 0.053 | [5] 0.038 | [6] 0.041 | duvelisib 0.02 | gandotinib -0.001 | tozasertib 0.005 | [7] 0.049 | doramapimod -0.007 | ispinesib 0.05

PGLS (UniProt O95336)
inactive: [1] -0.1 | filanesib 0.048 | zotarolimus 0.033 | idasanutlin -0.013 | alisertib -0.139 | [2] -0.131 | gefitinib 0.026 | [3] 0.059 | lapatinib -0.107 | pictilisib 0.049 | [4] -0.061 | crizotinib 0.018 | [5] 0.23 | [6] -0.132 | duvelisib 0.31 | gandotinib 0.034 | tozasertib 0.063 | [7] -0.032 | doramapimod -0.014 | ispinesib 0.246

PEX2 (UniProt P28328)
inactive: [1] 0.02 | filanesib 0 | zotarolimus 0.049 | idasanutlin -0.174 | alisertib 0.063 | [2] 0.019 | gefitinib 0.005 | [3] 0.045 | lapatinib 0.009 | pictilisib -0.093 | [4] 0.209 | crizotinib 0.062 | [5] 0.054 | [6] 0.041 | duvelisib -0.063 | gandotinib -0.18 | tozasertib -0.001 | [7] -0.006 | doramapimod 0.007 | ispinesib -0.144

PIH1D1 (UniProt Q9NWS0)
inactive: [1] 0.185 | filanesib -0.017 | zotarolimus -0.019 | idasanutlin 0.013 | alisertib -0.056 | [2] -0.014 | gefitinib -0.032 | [3] -0.067 | lapatinib 0.097 | pictilisib -0.027 | [4] 0.031 | crizotinib -0.043 | [5] -0.006 | [6] 0.03 | duvelisib 0.094 | gandotinib -0.052 | tozasertib 0.059 | [7] -0.112 | doramapimod -0.006 | ispinesib -0.037

PIP5K1A (UniProt Q99755)
inactive: [1] -0.014 | filanesib 0 | zotarolimus 0 | idasanutlin 0.13 | alisertib 0.086 | [2] -0.107 | gefitinib -0.026 | [3] 0.061 | lapatinib 0.021 | pictilisib 0.046 | [4] -0.049 | crizotinib -0.024 | [5] -0.084 | [6] 0.077 | duvelisib -0.051 | gandotinib 0.096 | tozasertib 0.095 | [7] -0.049 | doramapimod 0.097 | ispinesib -0.351
